Measurements from article PMC10761746 (Scientific Reports, 2024).
No constants are given. Whether binding was seen depends on the method and setting. Binding seen in cells or lysates may run through a third protein. A yes stands for co-enrichment or nearness to the bait. Other partners may have been found. Sequences can lack the tags named with a protein.

Protein sequences, listed by entry. Tags and fused reporters are not part of them.
UniProt P0A7Z7: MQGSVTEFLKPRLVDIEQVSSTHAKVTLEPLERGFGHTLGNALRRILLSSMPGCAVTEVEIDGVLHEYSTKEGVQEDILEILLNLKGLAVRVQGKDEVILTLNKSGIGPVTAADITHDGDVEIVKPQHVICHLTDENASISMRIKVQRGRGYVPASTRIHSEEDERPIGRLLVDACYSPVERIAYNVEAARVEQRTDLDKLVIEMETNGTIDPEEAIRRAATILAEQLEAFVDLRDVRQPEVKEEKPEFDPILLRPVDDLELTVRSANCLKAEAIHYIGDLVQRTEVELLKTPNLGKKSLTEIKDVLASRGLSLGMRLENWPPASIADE
UniProt P06173: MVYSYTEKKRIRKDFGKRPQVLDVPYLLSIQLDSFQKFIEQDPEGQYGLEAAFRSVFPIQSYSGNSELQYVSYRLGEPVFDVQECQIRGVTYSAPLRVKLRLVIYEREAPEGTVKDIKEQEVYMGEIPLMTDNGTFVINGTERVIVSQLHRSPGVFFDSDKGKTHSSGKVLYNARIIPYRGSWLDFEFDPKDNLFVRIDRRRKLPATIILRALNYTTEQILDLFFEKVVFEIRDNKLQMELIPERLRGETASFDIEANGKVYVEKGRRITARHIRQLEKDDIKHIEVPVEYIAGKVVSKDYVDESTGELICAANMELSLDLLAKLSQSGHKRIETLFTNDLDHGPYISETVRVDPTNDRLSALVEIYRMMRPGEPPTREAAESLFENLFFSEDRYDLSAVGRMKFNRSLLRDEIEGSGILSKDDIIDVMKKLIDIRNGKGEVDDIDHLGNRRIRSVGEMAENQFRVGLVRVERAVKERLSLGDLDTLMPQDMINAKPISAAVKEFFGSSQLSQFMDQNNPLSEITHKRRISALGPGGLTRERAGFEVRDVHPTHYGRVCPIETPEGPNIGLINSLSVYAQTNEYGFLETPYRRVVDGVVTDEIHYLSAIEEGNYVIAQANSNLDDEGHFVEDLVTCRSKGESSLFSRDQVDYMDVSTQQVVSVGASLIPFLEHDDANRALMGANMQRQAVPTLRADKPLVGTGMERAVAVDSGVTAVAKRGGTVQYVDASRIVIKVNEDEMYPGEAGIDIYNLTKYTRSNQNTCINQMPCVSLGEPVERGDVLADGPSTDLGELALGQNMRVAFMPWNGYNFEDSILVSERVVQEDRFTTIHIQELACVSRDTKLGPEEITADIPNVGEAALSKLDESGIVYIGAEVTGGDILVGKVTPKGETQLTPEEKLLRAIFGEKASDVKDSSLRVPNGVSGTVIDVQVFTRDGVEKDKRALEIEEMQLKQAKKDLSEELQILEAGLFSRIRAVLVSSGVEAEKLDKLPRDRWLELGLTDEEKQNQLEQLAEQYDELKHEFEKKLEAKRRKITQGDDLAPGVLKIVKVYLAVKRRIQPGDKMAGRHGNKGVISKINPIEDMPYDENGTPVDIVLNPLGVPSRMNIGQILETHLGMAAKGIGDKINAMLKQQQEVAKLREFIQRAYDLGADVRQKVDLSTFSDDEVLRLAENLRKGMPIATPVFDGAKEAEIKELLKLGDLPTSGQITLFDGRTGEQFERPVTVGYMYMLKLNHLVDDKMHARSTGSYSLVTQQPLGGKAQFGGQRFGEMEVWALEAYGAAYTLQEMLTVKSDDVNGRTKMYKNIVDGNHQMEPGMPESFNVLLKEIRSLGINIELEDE
UniProt P0A2R4: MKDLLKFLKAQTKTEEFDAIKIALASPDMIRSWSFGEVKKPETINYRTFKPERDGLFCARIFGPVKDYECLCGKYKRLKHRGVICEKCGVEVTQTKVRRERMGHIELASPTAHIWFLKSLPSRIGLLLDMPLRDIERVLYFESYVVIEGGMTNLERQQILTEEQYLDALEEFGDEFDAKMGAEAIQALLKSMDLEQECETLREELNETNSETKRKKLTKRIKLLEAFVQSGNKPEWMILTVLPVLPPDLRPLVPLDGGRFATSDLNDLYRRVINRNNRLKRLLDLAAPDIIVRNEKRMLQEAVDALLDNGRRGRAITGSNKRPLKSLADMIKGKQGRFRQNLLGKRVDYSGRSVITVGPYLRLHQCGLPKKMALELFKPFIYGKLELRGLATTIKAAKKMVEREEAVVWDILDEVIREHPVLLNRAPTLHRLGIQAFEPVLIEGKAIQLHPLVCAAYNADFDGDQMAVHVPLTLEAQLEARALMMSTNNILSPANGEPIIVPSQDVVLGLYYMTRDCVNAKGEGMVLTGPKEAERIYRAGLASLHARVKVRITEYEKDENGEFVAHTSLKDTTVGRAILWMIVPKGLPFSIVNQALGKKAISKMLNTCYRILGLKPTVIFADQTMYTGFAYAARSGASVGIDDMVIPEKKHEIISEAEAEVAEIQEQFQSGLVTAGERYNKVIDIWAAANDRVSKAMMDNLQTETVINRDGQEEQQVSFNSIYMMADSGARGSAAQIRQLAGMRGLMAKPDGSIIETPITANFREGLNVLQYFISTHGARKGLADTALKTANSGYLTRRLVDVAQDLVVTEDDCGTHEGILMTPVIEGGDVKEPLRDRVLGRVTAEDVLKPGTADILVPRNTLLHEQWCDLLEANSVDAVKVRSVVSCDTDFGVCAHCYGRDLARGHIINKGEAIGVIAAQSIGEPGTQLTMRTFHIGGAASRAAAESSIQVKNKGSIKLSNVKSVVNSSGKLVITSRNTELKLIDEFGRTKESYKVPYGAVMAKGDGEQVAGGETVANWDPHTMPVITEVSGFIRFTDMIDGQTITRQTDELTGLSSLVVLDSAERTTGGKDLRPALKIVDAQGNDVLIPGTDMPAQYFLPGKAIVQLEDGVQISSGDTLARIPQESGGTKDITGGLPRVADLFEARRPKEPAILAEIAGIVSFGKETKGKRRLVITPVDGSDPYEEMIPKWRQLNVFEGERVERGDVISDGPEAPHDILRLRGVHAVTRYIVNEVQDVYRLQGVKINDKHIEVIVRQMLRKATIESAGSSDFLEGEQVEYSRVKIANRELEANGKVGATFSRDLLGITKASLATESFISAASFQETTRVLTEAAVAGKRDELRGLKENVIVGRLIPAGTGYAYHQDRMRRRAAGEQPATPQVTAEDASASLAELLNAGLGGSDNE
UniProt Q7CQ01: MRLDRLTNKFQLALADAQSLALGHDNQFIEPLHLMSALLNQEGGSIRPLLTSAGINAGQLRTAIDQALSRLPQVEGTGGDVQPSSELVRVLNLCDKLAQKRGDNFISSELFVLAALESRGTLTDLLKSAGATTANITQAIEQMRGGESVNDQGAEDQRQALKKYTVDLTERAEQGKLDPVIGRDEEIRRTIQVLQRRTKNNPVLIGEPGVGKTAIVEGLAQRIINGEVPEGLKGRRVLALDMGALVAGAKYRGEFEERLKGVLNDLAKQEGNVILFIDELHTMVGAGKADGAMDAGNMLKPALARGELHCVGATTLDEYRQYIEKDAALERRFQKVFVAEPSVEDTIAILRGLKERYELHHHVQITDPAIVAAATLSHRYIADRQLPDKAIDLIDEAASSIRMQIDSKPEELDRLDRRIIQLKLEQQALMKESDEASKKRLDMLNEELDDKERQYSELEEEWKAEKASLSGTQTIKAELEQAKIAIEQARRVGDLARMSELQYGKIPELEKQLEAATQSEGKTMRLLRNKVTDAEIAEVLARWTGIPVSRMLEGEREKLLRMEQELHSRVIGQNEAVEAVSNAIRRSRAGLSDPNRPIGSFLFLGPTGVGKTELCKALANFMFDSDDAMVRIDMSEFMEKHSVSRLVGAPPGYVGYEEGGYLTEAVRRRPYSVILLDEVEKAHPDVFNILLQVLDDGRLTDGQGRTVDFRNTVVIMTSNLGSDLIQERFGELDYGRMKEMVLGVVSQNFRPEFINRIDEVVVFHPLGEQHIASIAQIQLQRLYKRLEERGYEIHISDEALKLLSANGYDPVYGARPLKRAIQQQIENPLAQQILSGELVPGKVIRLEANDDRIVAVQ
UniProt P0A2E3: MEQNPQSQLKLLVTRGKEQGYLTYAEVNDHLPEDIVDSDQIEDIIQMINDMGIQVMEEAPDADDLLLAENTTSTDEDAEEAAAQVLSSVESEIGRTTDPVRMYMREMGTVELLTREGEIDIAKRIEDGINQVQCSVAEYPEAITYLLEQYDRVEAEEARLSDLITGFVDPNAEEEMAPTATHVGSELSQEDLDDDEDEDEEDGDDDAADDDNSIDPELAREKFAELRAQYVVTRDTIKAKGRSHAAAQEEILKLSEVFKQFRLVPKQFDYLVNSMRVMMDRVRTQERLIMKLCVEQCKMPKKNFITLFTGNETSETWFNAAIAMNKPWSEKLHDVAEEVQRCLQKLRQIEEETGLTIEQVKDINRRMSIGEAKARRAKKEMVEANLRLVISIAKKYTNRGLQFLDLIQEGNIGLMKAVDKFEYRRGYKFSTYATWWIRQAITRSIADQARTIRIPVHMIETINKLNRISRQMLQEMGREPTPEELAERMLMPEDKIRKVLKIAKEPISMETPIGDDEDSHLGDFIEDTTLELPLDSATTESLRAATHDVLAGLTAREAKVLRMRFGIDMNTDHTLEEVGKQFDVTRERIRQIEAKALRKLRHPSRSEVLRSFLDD

Molecular target: T1, MBP-InvF (InvF fused to the maltose-binding protein) (Salmonella enterica serovar Typhimurium) (UniProt P69343)
T1 sequence: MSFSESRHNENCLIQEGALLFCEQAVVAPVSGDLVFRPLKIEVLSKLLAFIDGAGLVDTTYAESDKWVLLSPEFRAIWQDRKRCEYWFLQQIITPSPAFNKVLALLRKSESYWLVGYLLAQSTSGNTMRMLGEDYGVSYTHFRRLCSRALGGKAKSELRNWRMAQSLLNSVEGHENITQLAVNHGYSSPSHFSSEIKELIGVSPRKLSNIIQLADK
Assay: affinity purification with mass spectrometry; only the target purified

| Substance | binding |
| --- | --- |
| ATP-dependent Clp protease ATP-binding subunit ClpA (from UniProt A0A0F6AZ85) | binds |
| DNA-directed RNA polymerase subunit alpha (from UniProt P0A7Z7 1-329) | binds |
| DNA-directed RNA polymerase subunit beta (from UniProt P06173 1-1342) | binds |
| DNA-directed RNA polymerase subunit beta’ (from UniProt P0A2R4 1-1407) | binds |
| Protein disaggregation chaperon ClpB (from UniProt Q7CQ01 1-857) | binds |
| RNA polymerase sigma factor RpoD (from UniProt P0A2E3 1-615) | binds |
